# Laboratory results reported in publication PMC6736568, “Discovery of Novel Anti-cryptosporidial Activities From Natural Products by in vitro High-Throughput Phenotypic Screening” (Frontiers in Microbiology, 2019).
# Like-named read-outs stand apart in the source and are kept apart here. *1 amine or outer side, *2 acyl side, *3 side chain or, on linkers, in order; H or OH if unused. Where a SMILES comes first, the peptide text is derived from it. Bridges are numbered along the chain shown (N, C = ends). Roman numbers before positions name the chains, in order. [ ]: non-standard residue; d: D form. Actinocin(9to1) = Cc1c2oc3c(C)ccc(C(=O)[*:1])c3nc-2c(C(=O)[*:2])c(N)c1=O; NMeV = CN[C@H](C(=O)O)C(C)C; Sar = CNCC(=O)O
# Test system: HCT-8 cells
# Experiment: In vitro cytotoxicity MTS assay on host cells
# Format: cell-based, human
# Protocol: The plates were measured for absorbance at 490 nm in 15 min intervals in a SmartReader 96 microplate reader (Accuris, Edison, NJ, United States). Cytotoxicity of a compound was quantified by calculating the half maximal toxic concentration on host cells (TC50). An in vitro safety interval (SI) was calculated by determining the ratio between TC50 and EC50 values (i.e., SI = TC50/EC50).
# [1] = in vitro safety interval, SI = TC50/EC50
Structure (SMILES),SI [1],further results
"COc1ccc(C(=O)c2ccc(O)cc2)c(O)c1O [2,3,4′-Trihydroxy-4-methoxybenzophenone]",>27.1,"SI (in vitro safety interval, SI = TC50/EC50, listed as 2,3,4'-Trihydroxy-4- methoxybenzophenone): > 27.1"
COC(=O)C[C@H]1C(C)(C)[C@@H](O)[C@@H]2CC3=C4C=C(OC)O[C@@H](c5ccoc5)[C@]4(C)CCC3[C@@]1(C)C2=O (stereo partly drawn) [3-Deoxo-3beta-hydroxy-mexicanolide 16-enol ether],>25.4,"SI (in vitro safety interval, SI = TC50/EC50, listed as 3-Deoxo-3beta-hydroxy- mexicanolide 16-enol ether): > 25.4"
O=c1cc(-c2ccccc2)oc2cc(O)c(O)c(O)c12 [Baicalein],> 102,–
CC1(C)C(=O)C=C[C@@]2(C)C1=C(O)C(=O)[C@]1(C)[C@@H]2CC[C@@]2(C)[C@H](c3ccoc3)C[C@H]3O[C@]321 [Cedrelone],13.4,–
"Cc1c2oc3c(C)ccc(C(=O)N[C@@H]4C(=O)N[C@H](C(C)C)C(=O)N5CCC[C@H]5C(=O)N(C)CC(=O)N(C)[C@@H](C(C)C)C(=O)O[C@@H]4C)c3nc-2c(C(=O)N[C@@H]2C(=O)N[C@H](C(C)C)C(=O)N3CCC[C@H]3C(=O)N(C)CC(=O)N(C)[C@@H](C(C)C)C(=O)O[C@@H]2C)c(N)c1=O [Dactinomycin, reference compound] (I: T[dV]P[Sar][NMeV] / II: T[dV]P[Sar][NMeV]; ester I:1-I:C, II:1-II:C; linker I:N-II:N via Actinocin(9to1))",9.10,–
"COc1cccc2c1C(=O)c1c(O)c3c(c(O)c1C2=O)C[C@@](O)(C(C)=O)C[C@@H]3O[C@H]1C[C@H](N)[C@H](O)[C@H](C)O1 [Daunorubicin, reference compound]",–,SI: 28.5
CC1(C)C(=O)C=C[C@]2(C)[C@H]3CC[C@@]4(C)[C@H](c5ccoc5)OC(=O)[C@H]5O[C@]54[C@]3(C)C(=O)C[C@@H]12 [Deacetoxy-7-oxogedunin],6.59,–
CC1(C)C(=O)C=C[C@]2(C)[C@H]3CC[C@@]4(C)[C@H](c5ccoc5)OC(=O)[C@H]5O[C@]54[C@]3(C)[C@H](O)C[C@@H]12 [Deacetylgedunin],17.4,–
"COc1ccc2c(c1)OCC(Cc1ccc(OC)c(OC(C)=O)c1)C2=O (stereo not shown) [Deoxysappanone B 7,3′-dimethyl ether acetate]",>84,"SI (in vitro safety interval, SI = TC50/EC50, listed as Deoxysappanone B 7,3'- dimethyl ether acetate (Deox B 7,3)): > 84"
"COc1ccc2c(c1)OC[C@H](Cc1ccc(OC)c(O)c1)C2=O [Deoxysappanone B 7,4′-dimethyl ether]",88.9,–
CC(C)=CCCC1(C)C=Cc2c(O)c3c(c(CC=C(C)C)c2O1)OC12C(=CC4CC1C(C)(C)OC2(C/C=C(/C)C(=O)O)C4O)C3=O (stereo not shown) [Dihydrogambogic acid],3.78,–
Cc1cccc2c3c(ccc12)C1=C(C(=O)C3=O)[C@@H](C)CO1 [Dihydrotanshinone I],8.11,–
"CC[C@H](C)C(=O)O[C@H]1C[C@@H](C)C=C2C=C[C@H](C)[C@H](CC[C@@H]3C[C@@H](O)CC(=O)O3)[C@H]21 [Lovastatin, reference compound]",>41.6,–
"CO[C@@]12[C@H](COC(N)=O)C3=C(C(=O)C(C)=C(N)C3=O)N1C[C@@H]1N[C@@H]12 [Mitomycin, reference compound]",98.7,–
Cc1coc2c1C(=O)C(=O)c1c-2ccc2c1CCCC2(C)C [Tanshinone IIA],> 104,–
"CC(C)[C@@H]1NC(=O)[C@H](C)OC(=O)[C@@H](C(C)C)NC(=O)[C@@H](C(C)C)OC(=O)[C@H](C(C)C)NC(=O)[C@H](C)OC(=O)[C@@H](C(C)C)NC(=O)[C@@H](C(C)C)OC(=O)[C@H](C(C)C)NC(=O)[C@H](C)OC(=O)[C@@H](C(C)C)NC(=O)[C@@H](C(C)C)OC1=O [Valinomycin, reference compound]",>410,–
